Results are given in words; binding and its absence hold for the method and conditions named. In cells and extracts the contact can be indirect. These calls come from enrichment with a bait or labelling near it, and not all partners need be listed. Tags and fused reporters may be left off the sequences shown. Values belong to the binder of their own block, whether it stands above or below them.
Molecular target: Complement factor C3a/C3 (human (endogenous in serum))
Assay: affinity purification with mass spectrometry; precleared human serum recirculated at 4 °C over 3F7E2-mAb coupled to cyanogen bromide Sepharose; washes with Triton X-100, sodium deoxycholate and 0.5 M NaCl at pH 8.0 and 9.0; elution with 50 mM TEA pH 11.3; reducing SDS-PAGE, whole lane to nanoLC-MS; haptoglobin column (3A8-mAb) as control; hits: >10-fold enriched, p < 0.05, three technical replicates

- binding: binds
B1: Inter-alpha-trypsin inhibitor heavy chain H1 (protein, UniProt P19827 35-672)
chain: SKSSEKRQAVDTAVDGVFIRSLKVNCKVTSRFAHYVVTSQVVNTANEAREVAFDLEIPKTAFISDFAVTADGNAFIGDIKDKVTAWKQYRKAAISGENAGLVRASGRTMEQFTIHLTVNPQSKVTFQLTYEEVLKRNHMQYEIVIKVKPKQLVHHFEIDVDIFEPQGISKLDAQASFLPKELAAQTIKKSFSGKKGHVLFRPTVSQQQSCPTCSTSLLNGHFKVTYDVSRDKICDLLVANNHFAHFFAPQNLTNMNKNVVFVIDISGSMRGQKVKQTKEALLKILGDMQPGDYFDLVLFGTRVQSWKGSLVQASEANLQAAQDFVRGFSLDEATNLNGGLLRGIEILNQVQESLPELSNHASILIMLTDGDPTEGVTDRSQILKNVRNAIRGRFPLYNLGFGHNVDFNFLEVMSMENNGRAQRIYEDHDATQQLQGFYSQVAKPLLVDVDLQYPQDAVLALTQNHHKQYYEGSEIVVAGRIADNKQSSFKADVQAHGEGQEFSITCLVDEEEMKKLLRERGHMLENHVERLWAYLTIQELLAKRMKVDREERANLSSQALQMSLDYGFVTPLTSMSIRGMADQDGLKPTIDKPSEDSPPLEMLGPRRTFVLSALQPSPTHSSSNTQRLPDRVTGVDTD

- binding: binds
B2: Serpin A12 (protein, UniProt Q8IW75 21-414)
chain: LKPSFSPRNYKALSEVQGWKQRMAAKELARQNMDLGFKLLKKLAFYNPGRNIFLSPLSISTAFSMLCLGAQDSTLDEIKQGFNFRKMPEKDLHEGFHYIIHELTQKTQDLKLSIGNTLFIDQRLQPQRKFLEDAKNFYSAETILTNFQNLEMAQKQINDFISQKTHGKINNLIENIDPGTVMLLANYIFFRARWKHEFDPNVTKEEDFFLEKNSSVKVPMMFRSGIYQVGYDDKLSCTILEIPYQKNITAIFILPDEGKLKHLEKGLQVDTFSRWKTLLSRRVVDVSVPRLHMTGTFDLKKTLSYIGVSKIFEEHGDLTKIAPHRSLKVGEAVHKAELKMDERGTEGAAGTGAQTLPMETPLVVKIDKPYLLLIYSEKIPSVLFLGKIVNPIGK

- binding: binds
B3: Histidine-rich glycoprotein (protein, UniProt P04196 19-525)
chain: VSPTDCSAVEPEAEKALDLINKRRRDGYLFQLLRIADAHLDRVENTTVYYLVLDVQESDCSVLSRKYWNDCEPPDSRRPSEIVIGQCKVIATRHSHESQDLRVIDFNCTTSSVSSALANTKDSPVLIDFFEDTERYRKQANKALEKYKEENDDFASFRVDRIERVARVRGGEGTGYFVDFSVRNCPRHHFPRHPNVFGFCRADLFYDVEALDLESPKNLVINCEVFDPQEHENINGVPPHLGHPFHWGGHERSSTTKPPFKPHGSRDHHHPHKPHEHGPPPPPDERDHSHGPPLPQGPPPLLPMSCSSCQHATFGTNGAQRHSHNNNSSDLHPHKHHSHEQHPHGHHPHAHHPHEHDTHRQHPHGHHPHGHHPHGHHPHGHHPHGHHPHCHDFQDYGPCDPPPHNQGHCCHGHGPPPGHLRRRGPGKGPRPFHCRQIGSVYRLPPLRKGEVLPLPEANFPSFPLPHHKHPLKPDNQPFPQSVSESCPGKFKSGFPQVSMFFTHTFPK
